# Where two headings read alike, the source gives them in different places. Results are given in words; binding and its absence hold for the method and conditions named. In cells and extracts the contact can be indirect. Some binding calls cover weakened binding; strength is not graded here. Tags and fused reporters may be left off the sequences shown.
# Sequences of proteins named here, by UniProt entry; tags and fusion partners are left off.
# UniProt P16370: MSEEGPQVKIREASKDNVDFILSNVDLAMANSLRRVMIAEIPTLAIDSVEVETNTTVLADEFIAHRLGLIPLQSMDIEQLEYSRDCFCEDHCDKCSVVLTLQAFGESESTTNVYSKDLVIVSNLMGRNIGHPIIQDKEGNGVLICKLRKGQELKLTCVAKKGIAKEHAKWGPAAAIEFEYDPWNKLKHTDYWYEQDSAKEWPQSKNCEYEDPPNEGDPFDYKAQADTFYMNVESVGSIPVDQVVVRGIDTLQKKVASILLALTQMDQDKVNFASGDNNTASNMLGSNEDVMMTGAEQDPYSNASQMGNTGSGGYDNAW
# T1: HA-tagged Rpc160 (S. cerevisiae) (UniProt P04051)
# T1 sequence: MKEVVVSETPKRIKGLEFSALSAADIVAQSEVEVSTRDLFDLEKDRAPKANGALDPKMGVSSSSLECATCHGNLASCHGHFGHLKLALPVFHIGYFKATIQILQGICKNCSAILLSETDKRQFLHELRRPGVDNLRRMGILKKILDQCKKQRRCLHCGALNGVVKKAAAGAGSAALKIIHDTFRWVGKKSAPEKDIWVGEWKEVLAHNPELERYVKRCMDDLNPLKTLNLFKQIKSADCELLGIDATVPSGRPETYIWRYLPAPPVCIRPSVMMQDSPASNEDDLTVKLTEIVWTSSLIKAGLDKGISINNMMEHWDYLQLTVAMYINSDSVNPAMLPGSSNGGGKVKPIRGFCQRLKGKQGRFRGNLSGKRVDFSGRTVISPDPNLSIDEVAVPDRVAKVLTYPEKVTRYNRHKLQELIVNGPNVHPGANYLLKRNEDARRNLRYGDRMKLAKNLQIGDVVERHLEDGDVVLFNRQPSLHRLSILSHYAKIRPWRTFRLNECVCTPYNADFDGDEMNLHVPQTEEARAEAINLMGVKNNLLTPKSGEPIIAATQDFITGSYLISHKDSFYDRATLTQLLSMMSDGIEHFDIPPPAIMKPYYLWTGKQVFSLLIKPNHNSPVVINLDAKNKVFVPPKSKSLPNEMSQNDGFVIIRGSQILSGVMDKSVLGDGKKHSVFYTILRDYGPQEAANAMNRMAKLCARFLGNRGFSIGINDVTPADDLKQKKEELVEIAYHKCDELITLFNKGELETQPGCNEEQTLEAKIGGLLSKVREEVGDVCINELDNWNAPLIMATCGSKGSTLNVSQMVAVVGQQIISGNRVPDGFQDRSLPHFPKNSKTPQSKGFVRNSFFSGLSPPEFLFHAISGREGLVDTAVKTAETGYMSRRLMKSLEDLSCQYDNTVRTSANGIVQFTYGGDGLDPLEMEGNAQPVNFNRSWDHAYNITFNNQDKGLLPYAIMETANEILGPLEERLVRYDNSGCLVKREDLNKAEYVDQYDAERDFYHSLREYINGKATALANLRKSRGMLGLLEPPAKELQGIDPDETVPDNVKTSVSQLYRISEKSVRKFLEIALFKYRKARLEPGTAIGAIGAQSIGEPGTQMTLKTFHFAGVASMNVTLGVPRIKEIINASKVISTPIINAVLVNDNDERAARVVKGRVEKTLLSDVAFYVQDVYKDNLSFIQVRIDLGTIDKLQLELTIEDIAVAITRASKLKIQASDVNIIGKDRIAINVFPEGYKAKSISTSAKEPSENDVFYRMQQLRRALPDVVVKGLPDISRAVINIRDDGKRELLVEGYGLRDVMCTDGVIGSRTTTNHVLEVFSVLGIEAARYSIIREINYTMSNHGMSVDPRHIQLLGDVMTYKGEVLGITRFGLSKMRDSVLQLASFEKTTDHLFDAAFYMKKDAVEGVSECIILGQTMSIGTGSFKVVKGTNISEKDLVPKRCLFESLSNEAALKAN
# T2: 13-myc-tagged Iwr1 (S. cerevisiae) (UniProt Q07532)
# T2 sequence: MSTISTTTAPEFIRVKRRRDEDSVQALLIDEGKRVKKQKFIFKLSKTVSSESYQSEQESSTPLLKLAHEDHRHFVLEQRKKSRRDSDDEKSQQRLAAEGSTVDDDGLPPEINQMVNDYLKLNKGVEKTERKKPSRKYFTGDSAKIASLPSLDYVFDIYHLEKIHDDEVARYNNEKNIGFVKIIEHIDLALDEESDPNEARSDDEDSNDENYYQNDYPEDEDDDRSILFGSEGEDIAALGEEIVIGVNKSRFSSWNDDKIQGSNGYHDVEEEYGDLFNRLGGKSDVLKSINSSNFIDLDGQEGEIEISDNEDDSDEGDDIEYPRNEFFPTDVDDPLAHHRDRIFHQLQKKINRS
# B1: 13-myc-tagged Iwr1 (protein, UniProt Q07532 1-353)
# chain: T2 sequence
# B2: HA-tagged Rpc160 (protein, UniProt P04051 1-1460)
# chain: T1 sequence
# Legend:
# [1] = target: T1, HA-tagged Rpc160 (S. cerevisiae); assay: co-IP; 50 ug total yeast protein extract, pre-cleared, anti-HA agarose beads 2 hrs at 4°, six washes with 0.15 M Tris-HCl pH 7.8, 50 mM KAc, 20% glycerol, 1 mM EDTA, 0.5 mM DTT, 0.5% Triton-X100; western blot
# [2] = target: T1, HA-tagged Rpc160 (S. cerevisiae); assay: as above; remark: listed apart in the source
# [3] = target: T2, 13-myc-tagged Iwr1 (S. cerevisiae); assay: co-IP; reverse: immunoprecipitation of 13-myc-tagged Iwr1 (anti-MYC agarose beads) from yeast extract; data not shown
molecule,measurement,setting,value
Rpb3 (from UniProt P16370 1-318),binding,[1],no binding
B1,binding,[2],binds weakly
B2,binding,[3],binds weakly

# — publication PMC3112208
